Experimental data taken from patent US20110071141A1, “Pesticidial Condensed-Ring Aryl Compounds” (Bayer CropScience AG, priority 2008, published 2011).
Some of these results come from one statement about several compounds together.

Assays:
Format in all cases: in vivo
Musca domestica = settings: application rate 100 ppm; adults; 2 days
Description: (§1) Solvent: dimethyl sulfoxide
Prior to the assay, a piece or kitchen sponge is soaked with a mixture of sugar and compound solution and placed into a container. 10 adults (Musca domestica) are placed into the container and closed with a perforated lid. After 2 days, mortality in % is determined. 100% means that all the flies have been killed; 0% means that none of the flies have been killed.

Lucilia cuprina larvae = settings: application rate 100 ppm; larvae in minced horse meat; 2 days
Description: as §1
Approximately 20-30 (Lucilia cuprina larvae) are transferred into a test tube containing 1 cm^3 of minced horse meat and 0.5 ml aqueous dilution of test compound. After 2 days, mortality in % is determined.

Boophilus microplus = settings: application rate 20 μg/animal injected; adult engorged female ticks; 7 days
Description: as §1
Five adult engorged female ticks (Boophilus microplus) are injected with compound solution into the abdomen. Ticks are transferred into replica plates and incubated in a climate chamber for a period of time. Egg deposition of fertile eggs is monitored. After 7 days, mortality in % is determined. 100% means that all eggs are infertile; 0% means that all eggs are fertile.

Tetranychus urticae = experiment: Test on Tetranychus urticae (spray test); settings: active compound concentration 100 ppm; adult mites on pinto bean sprayed; 7 days
Ctenocephalides felis = settings: application rate 100 ppm in cattle blood; adult unfed fleas; 2 days
Description: as §1
Approximately 10 to 15 adult unfed (Ctenocepahlides felis) are placed in flea chambers. […] The blood chamber is heated to 37° C. whereas the flea chamber is kept at room temperature. After 2 days, mortality in % is determined. 100% means that all the fleas have been killed; 0% means that none of the fleas have been killed.

Row | SMILES | activity (mortality in %) (Musca domestica) [%] | activity (mortality in %) (Lucilia cuprina larvae) [%] | activity (mortality in %; 100% means all eggs infertile) (Boophilus microplus) [%] | mortality (acaricidal ratio) (Tetranychus urticae) [%] | activity (mortality in %) (Ctenocephalides felis) [%]
1 | O=C(NC1CCc2cc(C3=NOC(c4cc(Cl)c(Cl)c(Cl)c4)(C(F)(F)F)C3)ccc21)N1CCCC1 (stereo not shown) [Example 3-844] | ≥ 80 | ≥ 80 | ≥ 80 | ≥ 98 | ≥ 80
2 | CC(=O)CC(=O)NC1CCc2cc(C3=NOC(c4cc(Cl)c(Cl)c(Cl)c4)(C(F)(F)F)C3)ccc21 (stereo not shown) [Example 3-845] | ≥ 80 | ≥ 80 | ≥ 80 | ≥ 98 | ≥ 80
3 | N#CCC(=O)NC1CCc2cc(C3=NOC(c4cc(Cl)c(Cl)c(Cl)c4)(C(F)(F)F)C3)ccc21 (stereo not shown) [Example 3-846] | ≥ 80 | ≥ 80 | ≥ 80 | ≥ 98 | ≥ 80
4 | C=CC(=O)NC1CCc2cc(C3=NOC(c4cc(Cl)c(Cl)c(Cl)c4)(C(F)(F)F)C3)ccc21 (stereo not shown) [Example 3-847] | ≥ 80 | ≥ 80 | ≥ 80 | ≥ 98 | ≥ 80
5 | O=C(NC1CCc2cc(C3=NOC(c4cc(Cl)c(Cl)c(Cl)c4)(C(F)(F)F)C3)ccc21)c1ccco1 (stereo not shown) [Example 3-848] | ≥ 80 | ≥ 80 | ≥ 80 | ≥ 98 | ≥ 80
6 | N#CCNC(=O)NC1CCc2cc(C3=NOC(c4cc(Cl)c(Cl)c(Cl)c4)(C(F)(F)F)C3)ccc21 (stereo not shown) [Example 3-849] | ≥ 80 | ≥ 80 | ≥ 80 | ≥ 98 | ≥ 80
7 | O=C(NCC1CC1)NC1CCc2cc(C3=NOC(c4cc(Cl)c(Cl)c(Cl)c4)(C(F)(F)F)C3)ccc21 (stereo not shown) [Example 3-851] | ≥ 80 | ≥ 80 | ≥ 80 | ≥ 98 | ≥ 80
8 | CCCC(=O)NC1CCc2cc(C3=NOC(c4cc(Cl)c(Cl)c(Cl)c4)(C(F)(F)F)C3)ccc21 (stereo not shown) [Example 3-852] | ≥ 80 | ≥ 80 | ≥ 80 | ≥ 98 | ≥ 80
9 | CSCC(=O)NC1CCc2cc(C3=NOC(c4cc(Cl)c(Cl)c(Cl)c4)(C(F)(F)F)C3)ccc21 (stereo not shown) [Example 3-853] | ≥ 80 | ≥ 80 | ≥ 80 | ≥ 98 | ≥ 80
10 | O=C(Nc1ccccc1)NC1CCc2cc(C3=NOC(c4cc(Cl)cc(Cl)c4)(C(F)(F)F)C3)ccc21 (stereo not shown) [Example 3-859] | ≥ 80 | ≥ 80 | ≥ 80 | ≥ 98 | ≥ 80
11 | CONC(=O)NC1CCc2cc(C3=NOC(c4cc(Cl)cc(Cl)c4)(C(F)(F)F)C3)ccc21 (stereo not shown) [Example 3-862] | ≥ 80 | ≥ 80 | ≥ 80 | ≥ 98 | ≥ 80
12 | CCONC(=O)NC1CCc2cc(C3=NOC(c4cc(Cl)cc(Cl)c4)(C(F)(F)F)C3)ccc21 (stereo not shown) [Example 3-863] | ≥ 80 | ≥ 80 | ≥ 80 | ≥ 98 | ≥ 80
13 | C=CCONC(=O)NC1CCc2cc(C3=NOC(c4cc(Cl)cc(Cl)c4)(C(F)(F)F)C3)ccc21 (stereo not shown) [Example 3-864] | ≥ 80 | ≥ 80 | ≥ 80 | ≥ 98 | ≥ 80
14 | CON(C)C(=O)NC1CCc2cc(C3=NOC(c4cc(Cl)cc(Cl)c4)(C(F)(F)F)C3)ccc21 (stereo not shown) [Example 3-865] | ≥ 80 | ≥ 80 | ≥ 80 | ≥ 98 | ≥ 80
15 | O=C(CC1CC1)NC1CCc2cc(C3=NOC(c4cc(Cl)cc(Cl)c4)(C(F)(F)F)C3)ccc21 (stereo not shown) [Example 3-868] | ≥ 80 | ≥ 80 | ≥ 80 | ≥ 98 | ≥ 80
16 | CSCC(=O)NC1CCc2cc(C3=NOC(c4cc(Cl)cc(Cl)c4)(C(F)(F)F)C3)ccc21 (stereo not shown) [Example 3-872] | ≥ 80 | ≥ 80 | ≥ 80 | ≥ 98 | ≥ 80
17 | CCCC(=O)NC1CCc2cc(C3=NOC(c4cc(Cl)cc(Cl)c4)(C(F)(F)F)C3)ccc21 (stereo not shown) [Example 3-878] | ≥ 80 | ≥ 80 | ≥ 80 | ≥ 98 | ≥ 80
18 | O=C(CC(F)(F)F)NC1CCc2cc(C3=NOC(c4cc(Cl)c(C(F)(F)F)c(Cl)c4)(C(F)(F)F)C3)ccc21 (stereo not shown) [Example 3-880] | ≥ 80 | ≥ 80 | ≥ 80 | ≥ 98 | ≥ 80
19 | O=C(CC(F)(F)F)NC1CCc2cc(C3=NOC(c4ccc(F)c(C(F)(F)F)c4)(C(F)(F)F)C3)ccc21 (stereo not shown) [Example 3-881] | ≥ 80 | ≥ 80 | ≥ 80 | ≥ 98 | ≥ 80
20 | CCC(=O)NC1CCc2cc(C3=NOC(c4cc(Cl)c(C(F)(F)F)c(Cl)c4)(C(F)(F)F)C3)ccc21 (stereo not shown) [Example 3-897] | ≥ 80 | ≥ 80 | ≥ 80 | ≥ 98 | ≥ 80
21 | CCC(=O)NC1CCc2cc(C3=NOC(c4ccc(F)c(C(F)(F)F)c4)(C(F)(F)F)C3)ccc21 (stereo not shown) [Example 3-898] | ≥ 80 | ≥ 80 | ≥ 80 | ≥ 98 | ≥ 80
22 | N#CCC(=O)NC1CCCc2cc(C3=NOC(c4cc(Cl)c(Cl)c(Cl)c4)(C(F)(F)F)C3)ccc21 (stereo not shown) [Example 3-917] | ≥ 80 | ≥ 80 | ≥ 80 | ≥ 98 | ≥ 80
23 | N#CCC(=O)NC1CCCc2cc(C3=NOC(c4cc(C(F)(F)F)cc(C(F)(F)F)c4)(C(F)(F)F)C3)ccc21 (stereo not shown) [Example 3-918] | ≥ 80 | ≥ 80 | ≥ 80 | ≥ 98 | ≥ 80
